Data as given in PubChem BioAssay AID1508588 (Peter MacCallum Cancer Centre, 2020)
Screen: 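Which gene losses make BRAF-mutant melanoma cells more responsive to vemurafenib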 (primary screen). Cell system: human WM266.4 melanoma cells (BRAF V600 mutant). Reagents: siRNA pool against human genes, 40 nM. Duration: 96 h from transfection to read-out. Conditions: vemurafenib 300 nM (about IC25), added 48 h after transfection, for 48 h; comparison arm got DMSO vehicle only. Measurement: 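Cell gain (DAPI nuclei at end minus before drug, mean of two replicates) and medium lactate by absorbance per cell, both as ratio to non-targeting siRNA, also grouped into fold-change classes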. Scale: cell gain with vemurafenib: higher = more cell gain than with non-targeting siRNA; lactate per cell with vemurafenib: higher = more lactate made per cell. Active means: 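a knock-down counts as enhancing when its fold-change classes with vehicle and with vemurafenib, taken together, show a stronger drug effect on cell gain or lactate per cell; exact class pairs not stated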. Calls: active = enhances vemurafenib effect; inactive = no enhancement seen.
The whole screen tested about 18,000 reagents; below is an unselected part. Over the whole deposit, 790 (4.4%) are marked active. 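Calls rest on a combination of fold-change classes in drug and vehicle arms, not all shown here.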 A number with no mark means an inactive call.

LOC100288884 (retired record) | cell gain with vemurafenib: 0.14; lactate per cell with vemurafenib: 2.74
NIPAL2 (NIPA like domain containing 2) | cell gain with vemurafenib: 0.5; lactate per cell with vemurafenib: 1.65
ZNF239 (zinc finger protein 239) | cell gain with vemurafenib: 0.79; lactate per cell with vemurafenib: 1.05
POLR3D (RNA polymerase III subunit D) | cell gain with vemurafenib: 0.85; lactate per cell with vemurafenib: 0.88
UBTD1 (ubiquitin domain containing 1) | cell gain with vemurafenib: 0.6; lactate per cell with vemurafenib: 0.73
BPHL (biphenyl hydrolase like) | cell gain with vemurafenib: 0.84; lactate per cell with vemurafenib: 1.6
RCC2 (regulator of chromosome condensation 2) | cell gain with vemurafenib: 1.02; lactate per cell with vemurafenib: 0.46
OTULIN (OTU deubiquitinase with linear linkage specificity) | cell gain with vemurafenib: 0.63; lactate per cell with vemurafenib: 0.94
SNF8 (SNF8 subunit of ESCRT-II) | cell gain with vemurafenib: 0.61; lactate per cell with vemurafenib: 0.75
GAPDH (glyceraldehyde-3-phosphate dehydrogenase) | cell gain with vemurafenib: 0.97; lactate per cell with vemurafenib: 1.04
TJP3 (tight junction protein 3) | cell gain with vemurafenib: 0.28; lactate per cell with vemurafenib: 0.54
FABP5 (fatty acid binding protein 5) | cell gain with vemurafenib: 0.7; lactate per cell with vemurafenib: 0.16
UBALD2 (UBA like domain containing 2) | cell gain with vemurafenib: 0.43; lactate per cell with vemurafenib: 1.54
TM9SF3 (transmembrane 9 superfamily member 3) | cell gain with vemurafenib: 0.12; lactate per cell with vemurafenib: 1.91
DEDD (death effector domain containing) | cell gain with vemurafenib: 0.66; lactate per cell with vemurafenib: 0.45
RAP1B (RAP1B, member of RAS oncogene family) | cell gain with vemurafenib: 0.58; lactate per cell with vemurafenib: 0.74
SRXN1 (sulfiredoxin 1) | cell gain with vemurafenib: 0.41; lactate per cell with vemurafenib: 1.27
PIGV (phosphatidylinositol glycan anchor biosynthesis class V) | cell gain with vemurafenib: 0.83; lactate per cell with vemurafenib: 0.86
LOC90462 (retired record) | cell gain with vemurafenib: 0.3 (active); lactate per cell with vemurafenib: 0.45
FBXL8 (F-box and leucine rich repeat protein 8) | cell gain with vemurafenib: 0.64; lactate per cell with vemurafenib: 0.46
IL10 (interleukin 10) | cell gain with vemurafenib: 0.63; lactate per cell with vemurafenib: 1.06
TMED8 (transmembrane p24 trafficking protein family member 8) | cell gain with vemurafenib: 0.32; lactate per cell with vemurafenib: 0.71
TACR1 (tachykinin receptor 1) | cell gain with vemurafenib: 1.03; lactate per cell with vemurafenib: 1
HERC4 (HECT and RLD domain containing E3 ubiquitin protein ligase 4) | cell gain with vemurafenib: 0.43; lactate per cell with vemurafenib: 1.01
PAFAH1B3 | cell gain with vemurafenib: 0.86; lactate per cell with vemurafenib: 0.92
HSPG2 (heparan sulfate proteoglycan 2) | cell gain with vemurafenib: 0.91; lactate per cell with vemurafenib: 0.55
UBE2W (ubiquitin conjugating enzyme E2 W) | cell gain with vemurafenib: 0.67; lactate per cell with vemurafenib: 0.77
KRT10 (keratin 10) | cell gain with vemurafenib: 0.04; lactate per cell with vemurafenib: 1.79
MAGOHB (mago homolog B, exon junction complex subunit) | cell gain with vemurafenib: 0.69; lactate per cell with vemurafenib: 0.9
KCNH1 (potassium voltage-gated channel subfamily H member 1) | cell gain with vemurafenib: 0.58; lactate per cell with vemurafenib: 0.27
RAB24 (RAB24, member RAS oncogene family) | cell gain with vemurafenib: 0.6; lactate per cell with vemurafenib: 0.82
TMPRSS15 (transmembrane serine protease 15) | cell gain with vemurafenib: 0.69; lactate per cell with vemurafenib: 0.58
OR14C36 (olfactory receptor family 14 subfamily C member 36) | cell gain with vemurafenib: 0.5; lactate per cell with vemurafenib: 2.06
CRB2 (crumbs cell polarity complex component 2) | cell gain with vemurafenib: 0.46; lactate per cell with vemurafenib: 1.93
WSCD2 (WSC domain sialate O sulfotransferase 2) | cell gain with vemurafenib: 1.12; lactate per cell with vemurafenib: 0.67
BICRA | cell gain with vemurafenib: 1.05; lactate per cell with vemurafenib: 0.42
MROH9 (maestro heat like repeat family member 9) | cell gain with vemurafenib: 0.81; lactate per cell with vemurafenib: 0.86
EPYC (epiphycan) | cell gain with vemurafenib: 0.7; lactate per cell with vemurafenib: 0.45
TRIO (trio Rho guanine nucleotide exchange factor) | cell gain with vemurafenib: 0.59; lactate per cell with vemurafenib: 1.05
ZNF106 (zinc finger protein 106) | cell gain with vemurafenib: 0.24; lactate per cell with vemurafenib: 2.21

Individual results from above:
Under “cell gain with vemurafenib”, LOC90462 (retired record) reads 0.3 (active)
DEDD (death effector domain containing), lactate per cell with vemurafenib = 0.45
